Compound in the test: CC1Cc2ccccc2N1C(=O)C1CCCN(C1)C(=O)CCl (mixture of isomers) [TRIM25 ligand 11 (diastereomer mixture)]
The test can be described thus: probe-labelled cysteine peptide fold change vs DMSO (competition) (log2 fold change); higher = less target engagement (more negative = stronger competition). The note with it: THP-1, incubation time: 4 h.

Protein sequences, listed by entry. Tags and fused reporters are not part of them. Lines headed by an entry give the natural chain unless they say otherwise; changes in a name come on top.
UniProt Q15052: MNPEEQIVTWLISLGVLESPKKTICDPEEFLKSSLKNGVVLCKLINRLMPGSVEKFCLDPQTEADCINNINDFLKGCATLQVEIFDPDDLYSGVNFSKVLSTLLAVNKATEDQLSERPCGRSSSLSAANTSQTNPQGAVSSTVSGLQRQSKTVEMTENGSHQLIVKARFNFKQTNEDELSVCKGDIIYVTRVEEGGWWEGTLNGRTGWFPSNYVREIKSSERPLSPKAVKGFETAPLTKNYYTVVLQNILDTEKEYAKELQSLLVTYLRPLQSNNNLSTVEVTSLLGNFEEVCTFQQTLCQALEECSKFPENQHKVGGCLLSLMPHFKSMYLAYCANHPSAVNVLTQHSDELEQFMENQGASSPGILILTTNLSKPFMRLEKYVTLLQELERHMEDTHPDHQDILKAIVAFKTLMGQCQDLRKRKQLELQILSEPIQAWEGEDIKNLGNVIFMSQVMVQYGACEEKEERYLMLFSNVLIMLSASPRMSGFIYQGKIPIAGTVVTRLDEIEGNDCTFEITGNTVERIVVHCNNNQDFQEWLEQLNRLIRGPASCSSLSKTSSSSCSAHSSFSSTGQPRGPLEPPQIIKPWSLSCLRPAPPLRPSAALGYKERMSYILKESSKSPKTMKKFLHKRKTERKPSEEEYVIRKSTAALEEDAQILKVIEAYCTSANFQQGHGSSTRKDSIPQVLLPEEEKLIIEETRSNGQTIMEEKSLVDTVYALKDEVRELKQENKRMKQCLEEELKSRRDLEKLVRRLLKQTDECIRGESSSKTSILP
UniProt P07741: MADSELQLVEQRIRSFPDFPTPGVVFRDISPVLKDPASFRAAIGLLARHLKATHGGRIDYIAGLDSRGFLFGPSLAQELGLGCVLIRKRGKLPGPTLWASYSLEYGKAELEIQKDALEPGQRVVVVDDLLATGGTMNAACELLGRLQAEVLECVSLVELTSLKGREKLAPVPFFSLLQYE
UniProt Q4LE39: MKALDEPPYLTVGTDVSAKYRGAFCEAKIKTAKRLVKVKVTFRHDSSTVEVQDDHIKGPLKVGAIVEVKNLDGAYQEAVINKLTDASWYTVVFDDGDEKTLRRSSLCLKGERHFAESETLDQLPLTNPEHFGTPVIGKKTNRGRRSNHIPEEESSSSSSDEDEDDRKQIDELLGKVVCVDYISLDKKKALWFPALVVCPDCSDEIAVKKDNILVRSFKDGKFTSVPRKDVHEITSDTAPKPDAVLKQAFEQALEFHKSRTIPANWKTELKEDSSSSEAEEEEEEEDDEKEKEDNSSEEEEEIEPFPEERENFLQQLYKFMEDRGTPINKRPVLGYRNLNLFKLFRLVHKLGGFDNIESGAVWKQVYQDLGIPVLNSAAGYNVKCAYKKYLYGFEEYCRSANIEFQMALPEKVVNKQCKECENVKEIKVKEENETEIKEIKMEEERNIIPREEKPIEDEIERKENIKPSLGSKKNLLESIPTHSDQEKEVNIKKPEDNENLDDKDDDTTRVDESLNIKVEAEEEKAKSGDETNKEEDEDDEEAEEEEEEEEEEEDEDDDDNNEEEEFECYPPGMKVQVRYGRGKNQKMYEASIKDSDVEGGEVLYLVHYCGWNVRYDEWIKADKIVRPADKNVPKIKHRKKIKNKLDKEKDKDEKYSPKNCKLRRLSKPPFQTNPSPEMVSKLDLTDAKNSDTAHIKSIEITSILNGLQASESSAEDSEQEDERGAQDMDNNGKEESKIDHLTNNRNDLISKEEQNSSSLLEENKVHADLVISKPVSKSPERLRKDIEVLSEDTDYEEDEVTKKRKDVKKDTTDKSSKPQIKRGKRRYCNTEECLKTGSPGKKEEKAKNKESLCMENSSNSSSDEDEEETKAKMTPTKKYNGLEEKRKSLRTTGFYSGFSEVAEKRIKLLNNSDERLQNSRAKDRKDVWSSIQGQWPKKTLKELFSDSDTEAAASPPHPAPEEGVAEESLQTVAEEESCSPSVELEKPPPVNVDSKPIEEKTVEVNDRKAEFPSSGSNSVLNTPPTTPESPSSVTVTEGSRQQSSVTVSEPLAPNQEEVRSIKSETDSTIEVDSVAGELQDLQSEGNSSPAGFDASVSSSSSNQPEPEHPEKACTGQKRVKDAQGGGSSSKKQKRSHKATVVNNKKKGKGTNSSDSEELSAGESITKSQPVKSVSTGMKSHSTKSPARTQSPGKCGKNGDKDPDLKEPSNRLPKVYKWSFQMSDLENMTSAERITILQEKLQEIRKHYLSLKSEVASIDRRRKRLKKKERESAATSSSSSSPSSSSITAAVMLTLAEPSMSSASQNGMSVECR
UniProt P27540, whole entry, looked up: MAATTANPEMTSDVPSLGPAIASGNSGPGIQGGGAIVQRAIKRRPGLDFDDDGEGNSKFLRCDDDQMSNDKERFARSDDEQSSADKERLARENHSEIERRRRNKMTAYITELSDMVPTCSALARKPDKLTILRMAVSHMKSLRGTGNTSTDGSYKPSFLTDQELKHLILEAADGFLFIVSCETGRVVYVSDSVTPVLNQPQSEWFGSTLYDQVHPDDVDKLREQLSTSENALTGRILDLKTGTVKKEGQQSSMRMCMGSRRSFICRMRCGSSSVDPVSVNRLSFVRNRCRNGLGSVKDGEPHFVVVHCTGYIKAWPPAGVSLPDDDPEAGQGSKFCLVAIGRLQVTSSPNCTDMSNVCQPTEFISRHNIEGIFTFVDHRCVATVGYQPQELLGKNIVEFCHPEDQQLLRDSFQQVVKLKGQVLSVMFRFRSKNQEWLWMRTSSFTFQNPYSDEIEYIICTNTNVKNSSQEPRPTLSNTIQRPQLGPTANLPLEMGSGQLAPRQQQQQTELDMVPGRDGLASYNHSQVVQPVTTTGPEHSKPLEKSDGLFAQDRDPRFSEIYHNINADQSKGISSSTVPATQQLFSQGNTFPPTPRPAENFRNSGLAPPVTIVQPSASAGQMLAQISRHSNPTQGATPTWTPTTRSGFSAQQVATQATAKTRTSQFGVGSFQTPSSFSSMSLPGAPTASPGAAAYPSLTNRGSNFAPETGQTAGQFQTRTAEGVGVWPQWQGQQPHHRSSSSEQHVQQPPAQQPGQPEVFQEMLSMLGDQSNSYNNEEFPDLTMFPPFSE
UniProt Q92619: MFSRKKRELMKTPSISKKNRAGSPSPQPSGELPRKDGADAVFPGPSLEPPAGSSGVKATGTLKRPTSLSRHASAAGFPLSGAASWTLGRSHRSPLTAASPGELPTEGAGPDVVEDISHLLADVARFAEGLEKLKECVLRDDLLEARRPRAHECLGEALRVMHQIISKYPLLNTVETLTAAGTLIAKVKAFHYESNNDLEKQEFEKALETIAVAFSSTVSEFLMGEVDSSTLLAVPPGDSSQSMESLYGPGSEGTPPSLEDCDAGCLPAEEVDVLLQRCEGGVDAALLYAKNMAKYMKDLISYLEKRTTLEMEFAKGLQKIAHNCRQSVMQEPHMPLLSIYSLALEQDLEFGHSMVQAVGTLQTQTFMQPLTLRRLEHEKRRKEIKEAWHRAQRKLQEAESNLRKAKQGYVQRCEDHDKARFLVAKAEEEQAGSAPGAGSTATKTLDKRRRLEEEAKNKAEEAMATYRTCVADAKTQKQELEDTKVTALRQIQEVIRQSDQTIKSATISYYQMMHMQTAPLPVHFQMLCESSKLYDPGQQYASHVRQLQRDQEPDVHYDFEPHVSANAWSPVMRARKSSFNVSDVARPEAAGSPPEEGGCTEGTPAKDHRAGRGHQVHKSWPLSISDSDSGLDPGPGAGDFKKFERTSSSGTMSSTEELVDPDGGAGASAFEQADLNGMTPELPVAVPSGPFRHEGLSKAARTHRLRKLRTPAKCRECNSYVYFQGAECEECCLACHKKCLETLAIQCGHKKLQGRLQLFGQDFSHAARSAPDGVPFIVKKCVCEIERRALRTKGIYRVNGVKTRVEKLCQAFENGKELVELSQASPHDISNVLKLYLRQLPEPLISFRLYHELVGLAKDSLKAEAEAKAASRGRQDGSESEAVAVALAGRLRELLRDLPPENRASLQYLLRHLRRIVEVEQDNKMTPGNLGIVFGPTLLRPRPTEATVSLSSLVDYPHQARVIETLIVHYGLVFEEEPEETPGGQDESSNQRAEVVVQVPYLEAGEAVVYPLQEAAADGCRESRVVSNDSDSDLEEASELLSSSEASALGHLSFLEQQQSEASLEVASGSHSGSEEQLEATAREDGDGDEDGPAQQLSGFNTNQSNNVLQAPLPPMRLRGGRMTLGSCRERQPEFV
UniProt Q8N392: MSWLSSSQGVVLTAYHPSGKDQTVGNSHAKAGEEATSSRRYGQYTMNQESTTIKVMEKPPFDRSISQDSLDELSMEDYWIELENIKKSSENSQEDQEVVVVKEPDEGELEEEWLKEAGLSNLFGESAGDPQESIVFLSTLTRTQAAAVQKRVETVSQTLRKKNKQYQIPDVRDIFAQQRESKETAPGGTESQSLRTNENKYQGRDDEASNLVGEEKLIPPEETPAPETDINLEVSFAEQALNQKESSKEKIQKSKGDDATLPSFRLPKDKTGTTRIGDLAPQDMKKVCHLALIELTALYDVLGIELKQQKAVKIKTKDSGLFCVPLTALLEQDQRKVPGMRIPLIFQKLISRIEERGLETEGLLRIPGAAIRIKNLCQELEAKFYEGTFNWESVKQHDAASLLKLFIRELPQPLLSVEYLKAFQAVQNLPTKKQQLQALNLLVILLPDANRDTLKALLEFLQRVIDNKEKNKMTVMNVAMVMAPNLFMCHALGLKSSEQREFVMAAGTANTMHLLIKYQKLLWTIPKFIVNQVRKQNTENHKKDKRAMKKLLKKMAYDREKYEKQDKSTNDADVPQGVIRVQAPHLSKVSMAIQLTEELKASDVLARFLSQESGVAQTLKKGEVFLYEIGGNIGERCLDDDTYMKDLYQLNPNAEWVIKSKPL
UniProt Q0VD83: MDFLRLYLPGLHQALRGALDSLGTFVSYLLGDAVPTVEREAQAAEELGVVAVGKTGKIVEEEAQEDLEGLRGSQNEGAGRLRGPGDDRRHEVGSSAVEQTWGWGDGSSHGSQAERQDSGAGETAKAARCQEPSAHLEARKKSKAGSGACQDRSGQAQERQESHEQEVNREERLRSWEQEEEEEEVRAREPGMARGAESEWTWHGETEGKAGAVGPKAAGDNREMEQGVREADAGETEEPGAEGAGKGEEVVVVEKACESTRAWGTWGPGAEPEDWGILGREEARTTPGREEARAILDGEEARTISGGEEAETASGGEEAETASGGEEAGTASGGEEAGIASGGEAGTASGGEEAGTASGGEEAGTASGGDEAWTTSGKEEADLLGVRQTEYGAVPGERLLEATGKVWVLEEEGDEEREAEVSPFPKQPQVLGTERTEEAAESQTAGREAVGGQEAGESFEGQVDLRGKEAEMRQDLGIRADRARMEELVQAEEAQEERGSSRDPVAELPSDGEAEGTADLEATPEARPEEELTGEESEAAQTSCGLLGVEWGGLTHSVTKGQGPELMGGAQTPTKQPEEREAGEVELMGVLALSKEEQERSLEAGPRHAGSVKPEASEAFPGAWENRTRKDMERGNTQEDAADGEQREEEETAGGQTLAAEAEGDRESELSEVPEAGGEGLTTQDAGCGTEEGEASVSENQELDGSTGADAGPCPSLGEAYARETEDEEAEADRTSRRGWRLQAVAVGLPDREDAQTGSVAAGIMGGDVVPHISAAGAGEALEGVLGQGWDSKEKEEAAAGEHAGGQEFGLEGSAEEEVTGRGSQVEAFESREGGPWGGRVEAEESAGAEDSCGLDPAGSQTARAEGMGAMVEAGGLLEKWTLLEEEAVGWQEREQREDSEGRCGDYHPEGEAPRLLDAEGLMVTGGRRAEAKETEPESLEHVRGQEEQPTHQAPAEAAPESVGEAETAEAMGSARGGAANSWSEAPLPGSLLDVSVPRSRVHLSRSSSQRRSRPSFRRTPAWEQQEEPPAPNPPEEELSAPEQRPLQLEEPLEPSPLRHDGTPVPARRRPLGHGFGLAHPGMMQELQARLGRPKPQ
UniProt Q6NXE6: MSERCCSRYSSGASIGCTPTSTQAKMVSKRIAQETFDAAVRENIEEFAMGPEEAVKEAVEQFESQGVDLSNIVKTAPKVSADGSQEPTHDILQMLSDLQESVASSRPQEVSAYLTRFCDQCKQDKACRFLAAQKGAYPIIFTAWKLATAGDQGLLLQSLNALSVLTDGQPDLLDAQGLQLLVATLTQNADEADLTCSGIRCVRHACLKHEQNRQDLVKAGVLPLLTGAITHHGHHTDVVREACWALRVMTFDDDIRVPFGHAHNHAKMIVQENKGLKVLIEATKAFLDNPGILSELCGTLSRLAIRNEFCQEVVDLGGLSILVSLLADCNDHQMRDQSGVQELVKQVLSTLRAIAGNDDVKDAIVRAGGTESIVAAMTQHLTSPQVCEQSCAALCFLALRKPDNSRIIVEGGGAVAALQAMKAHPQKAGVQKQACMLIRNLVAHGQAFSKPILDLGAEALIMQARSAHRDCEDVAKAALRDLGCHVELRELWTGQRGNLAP

This is one part of the list.
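Also: competitive chemoproteomic profiling in live THP-1 cells with an iodoacetamide desthiobiotin (IA-DTB) probe, comparing probe-labelled peptide intensities in compound-treated cells against DMSO-treated controls.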

For “ARHGEF6_Q15052_763_QTDECIR (UniProt Q15052)”, the “probe-labelled cysteine peptide fold change” value reads like this: (10 µM) -0.00871; (50 µM) 0.0709.
For the target “APRT_P07741_153_LQAEVLECVSLVELTSLK (UniProt P07741)”, the “probe-labelled cysteine peptide fold change” value is -0.00596 (10 µM) and 0.0782 (50 µM).
Taken in the same sequence, the figures for “ARID4B_Q4LE39_420_ECENVK (UniProt Q4LE39)” were -0.173 and -0.212.
As to “ARNT_P27540_269_CGSSSVDPVSVNR (UniProt P27540)”, the “probe-labelled cysteine peptide fold change” value was -0.209 (10 µM) and -0.255 (50 µM).
With “ARHGEF6_Q15052_418_TLMGQCQDLR (UniProt Q15052)”, the “probe-labelled cysteine peptide fold change” value by setting is: (10 µM) 0.233; (50 µM) 0.204.
With “ARHGAP26_Q9UNA1_142_YCGILEK (UniProt Q9UNA1)”, the “probe-labelled cysteine peptide fold change” value (10 µM) is -0.123 and the “probe-labelled cysteine peptide fold change” value (50 µM) was -0.0292.
With “APRT_P07741_83_GFLFGPSLAQELGLGCVLIR (UniProt P07741)”, the “probe-labelled cysteine peptide fold change” value was 0.21 (10 µM) and -0.0847 (50 µM).
“ARHGAP45_Q92619_278_CEGGVDAALLYAK (UniProt Q92619)”: the “probe-labelled cysteine peptide fold change” value is, setting by setting: (10 µM) -0.0145; (50 µM) -0.0277.
As to “ARHGAP18_Q8N392_323_DSGLFCVPLTALLEQDQR (UniProt Q8N392)”, the “probe-labelled cysteine peptide fold change” value (10 µM) is -0.155 and the “probe-labelled cysteine peptide fold change” value (50 µM) is -0.199.
With “APOBR_Q0VD83_844_VEAEESAGAEDSCGLDPAGSQTAR (UniProt Q0VD83)”, the “probe-labelled cysteine peptide fold change” value is -0.144 (10 µM) and -0.0476 (50 µM).
Taken in the same sequence, the figures for “ARID4B_Q4LE39_107_SSLCLK (UniProt Q4LE39)” were -0.0353 and 0.0713.
Taken in the same sequence, the figures for “ARHGEF2_Q92974_342_TYSEFCSR (UniProt Q92974)” were 0.0143 and 0.0669.
The corresponding values for “ARHGEF12_Q9NZN5_784_EVLLGLKPCEIKR (UniProt Q9NZN5)” are -0.139 and -0.114.
With “ARHGAP45_Q92619_739+747_CLETLAIQCGHK (UniProt Q92619)”, the “probe-labelled cysteine peptide fold change” value by setting is: (10 µM) 0.0611; (50 µM) -0.0404.
As for “ARMC6_Q6NXE6_297_AFLDNPGILSELCGTLSR (UniProt Q6NXE6)”, the “probe-labelled cysteine peptide fold change” value runs as follows: (10 µM) -0.0364; (50 µM) -0.145.
